Data on 6 molecules can be found in paper PMC4215257.

By UniProt entry, the sequences of proteins in these tests, tags left out. Where a name states a change or a piece, a line headed by the entry shows the natural chain unless it says otherwise.
UniProt P33991: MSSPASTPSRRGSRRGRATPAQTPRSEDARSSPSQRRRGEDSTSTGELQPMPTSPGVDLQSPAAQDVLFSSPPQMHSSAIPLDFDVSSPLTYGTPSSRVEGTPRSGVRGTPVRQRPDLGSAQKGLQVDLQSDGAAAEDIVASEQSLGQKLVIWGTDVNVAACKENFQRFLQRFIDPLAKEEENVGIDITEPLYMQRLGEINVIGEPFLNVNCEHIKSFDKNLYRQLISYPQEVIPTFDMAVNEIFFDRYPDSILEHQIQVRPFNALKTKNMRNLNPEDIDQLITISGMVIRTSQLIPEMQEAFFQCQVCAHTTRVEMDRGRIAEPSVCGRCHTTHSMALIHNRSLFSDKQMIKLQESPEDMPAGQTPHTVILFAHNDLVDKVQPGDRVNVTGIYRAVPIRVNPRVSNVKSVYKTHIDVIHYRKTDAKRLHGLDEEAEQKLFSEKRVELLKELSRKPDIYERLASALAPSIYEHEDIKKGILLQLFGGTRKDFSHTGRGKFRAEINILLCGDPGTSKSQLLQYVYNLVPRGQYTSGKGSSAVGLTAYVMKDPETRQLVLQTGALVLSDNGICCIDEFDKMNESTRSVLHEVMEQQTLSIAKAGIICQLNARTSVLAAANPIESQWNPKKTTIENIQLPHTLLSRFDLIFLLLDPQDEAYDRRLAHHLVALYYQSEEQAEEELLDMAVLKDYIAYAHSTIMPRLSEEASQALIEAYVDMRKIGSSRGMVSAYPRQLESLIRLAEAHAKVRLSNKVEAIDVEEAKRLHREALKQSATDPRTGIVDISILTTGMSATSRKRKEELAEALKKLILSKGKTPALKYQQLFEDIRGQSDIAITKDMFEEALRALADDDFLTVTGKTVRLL
UniProt P33993: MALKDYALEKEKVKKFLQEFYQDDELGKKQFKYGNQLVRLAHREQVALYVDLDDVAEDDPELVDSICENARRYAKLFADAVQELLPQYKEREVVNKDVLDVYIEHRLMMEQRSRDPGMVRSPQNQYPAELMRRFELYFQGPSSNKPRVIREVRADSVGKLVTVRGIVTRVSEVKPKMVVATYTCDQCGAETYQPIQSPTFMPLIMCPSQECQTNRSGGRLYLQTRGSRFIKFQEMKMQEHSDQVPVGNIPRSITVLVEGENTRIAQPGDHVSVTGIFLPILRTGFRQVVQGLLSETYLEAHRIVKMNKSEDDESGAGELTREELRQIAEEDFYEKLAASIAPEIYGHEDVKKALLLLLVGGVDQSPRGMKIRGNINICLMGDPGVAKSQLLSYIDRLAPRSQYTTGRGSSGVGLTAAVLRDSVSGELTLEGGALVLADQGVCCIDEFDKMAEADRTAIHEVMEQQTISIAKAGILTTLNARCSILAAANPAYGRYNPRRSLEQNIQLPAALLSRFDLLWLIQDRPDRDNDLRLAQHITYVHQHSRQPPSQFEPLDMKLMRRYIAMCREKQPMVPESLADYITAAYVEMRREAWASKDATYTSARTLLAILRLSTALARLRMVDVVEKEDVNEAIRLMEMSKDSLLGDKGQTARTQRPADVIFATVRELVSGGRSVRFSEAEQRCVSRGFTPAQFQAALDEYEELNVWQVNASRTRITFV

No constants are given. Whether binding was seen depends on the method and setting. For part of these data: Binding seen in cells or lysates may run through a third protein. Some results given as binding are weak or reduced against the parent protein; the word gives no strength. Where a sequence is shown, tags or fusion partners need not be part of it.

For one assay, the target named is T1, HsGeminin-BD (human) (UniProt O75496).
T1 sequence: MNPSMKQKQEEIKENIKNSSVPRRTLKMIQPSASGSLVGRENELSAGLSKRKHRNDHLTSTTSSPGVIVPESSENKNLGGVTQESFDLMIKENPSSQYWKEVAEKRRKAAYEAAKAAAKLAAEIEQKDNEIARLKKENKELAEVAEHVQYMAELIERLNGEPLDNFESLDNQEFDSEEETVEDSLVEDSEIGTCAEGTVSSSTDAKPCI
Nature of the assay: co-IP; 60 ng purified FLAG-HsCdt1 with 40 ng wild-type or mutant HsGeminin; rabbit anti-human Geminin polyclonal antibodies on protein A/G plus agarose; PBS plus 1 mg/ml BSA, 4 °C, 3 h; washed with PBS plus 0.5 M NaCl; Western blot; both purified.

In assay [1] the target is HsMCM2–7 complex (human | human (endogenous in 293T)), P49736. Nature of the assay: recruitment to DNA-coupled magnetic beads; lamin B2 DNA fragment beads with HsORC and HsCdc6 for 30 min, then 26 nM HsMCM467 or 13 nM HsMCM2–7 for 30 min, then 60 nM HsGeminin for 30 min; no HsCdt1; Western blot; both purified. To be noted: remark: other sources report otherwise.
The next assay addresses T2, FLAG-HsCdt1 (human) (UniProt Q9H211).
T2 sequence: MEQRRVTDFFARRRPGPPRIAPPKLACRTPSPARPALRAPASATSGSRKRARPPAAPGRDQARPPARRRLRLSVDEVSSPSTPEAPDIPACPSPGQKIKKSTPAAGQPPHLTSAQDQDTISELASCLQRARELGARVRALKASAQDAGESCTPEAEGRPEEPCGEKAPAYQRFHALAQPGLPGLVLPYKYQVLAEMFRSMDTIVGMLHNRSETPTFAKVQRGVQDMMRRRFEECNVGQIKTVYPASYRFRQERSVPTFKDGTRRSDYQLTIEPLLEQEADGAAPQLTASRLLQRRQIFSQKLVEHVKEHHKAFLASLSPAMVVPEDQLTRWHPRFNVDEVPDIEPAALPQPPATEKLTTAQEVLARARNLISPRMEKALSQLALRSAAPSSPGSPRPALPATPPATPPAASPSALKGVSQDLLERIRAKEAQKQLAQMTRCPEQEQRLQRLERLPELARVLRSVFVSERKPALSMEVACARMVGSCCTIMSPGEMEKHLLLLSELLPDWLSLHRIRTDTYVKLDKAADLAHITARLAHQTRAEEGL
The assay can be described thus: recruitment to DNA-coupled magnetic beads; without HsMCM complexes: purified proteins (13 nM; HsGeminin 200 nM unless indicated) with beads carrying pUC19-lamin-B2 plasmid or linear lamin B2 DNA; 0.1 M NaCl, 1 mM ATP, 37 °C, 30 min; bound proteins by Western blot; both purified.

Another assay concerns the target HsMCM467 complex (human) (UniProt P33991+Q14566+P33993). Nature of the assay: recruitment to DNA-coupled magnetic beads; lamin B2 DNA fragment beads with HsORC and HsCdc6 for 30 min, then 26 nM HsMCM467 or 13 nM HsMCM2–7 for 30 min, then 60 nM HsGeminin for 30 min; no HsCdt1; Western blot; both purified.
The target in assay [2] is T3, FLAG-HsGeminin-His6 (wild type) (human) (UniProt O75496).
T3 sequence: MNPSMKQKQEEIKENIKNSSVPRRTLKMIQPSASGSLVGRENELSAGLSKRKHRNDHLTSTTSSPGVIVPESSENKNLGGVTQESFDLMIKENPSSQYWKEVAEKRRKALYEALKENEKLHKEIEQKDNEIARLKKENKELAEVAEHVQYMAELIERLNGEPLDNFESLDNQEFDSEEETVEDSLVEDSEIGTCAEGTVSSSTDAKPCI
The assay can be described thus: co-IP; extract of Sf9 cells expressing one untagged HsMCM subunit mixed with extract of Sf9 cells expressing Myc-HsCdc6, FLAG-HsCdt1 and/or FLAG-HsGeminin-His6; anti-FLAG or anti-Myc agarose beads, 4 °C, 3 h; PBS plus 1% Triton X-100; washed with PBS; Western blot.

B1: FLAG-HsCdt1 (protein, UniProt Q9H211 1-546)
chain: MEQRRVTDFFARRRPGPPRIAPPKLACRTPSPARPALRAPASATSGSRKRARPPAAPGRDQARPPARRRLRLSVDEVSSPSTPEAPDIPACPSPGQKIKKSTPAAGQPPHLTSAQDQDTISELASCLQRARELGARVRALKASAQDAGESCTPEAEGRPEEPCGEKAPAYQRFHALAQPGLPGLVLPYKYQVLAEMFRSMDTIVGMLHNRSETPTFAKVQRGVQDMMRRRFEECNVGQIKTVYPASYRFRQERSVPTFKDGTRRSDYQLTIEPLLEQEADGAAPQLTASRLLQRRQIFSQKLVEHVKEHHKAFLASLSPAMVVPEDQLTRWHPRFNVDEVPDIEPAALPQPPATEKLTTAQEVLARARNLISPRMEKALSQLALRSAAPSSPGSPRPALPATPPATPPAASPSALKGVSQDLLERIRAKEAQKQLAQMTRCPEQEQRLQRLERLPELARVLRSVFVSERKPALSMEVACARMVGSCCTIMSPGEMEKHLLLLSELLPDWLSLHRIRTDTYVKLDKAADLAHITARLAHQTRAEEGL
Regarding B1, the binding entry with HsGeminin-BD (human) is given as “no binding”.

B2: FLAG-HsGeminin-His6 (wild type), O75496 1-209 (protein)
chain: MNPSMKQKQEEIKENIKNSSVPRRTLKMIQPSASGSLVGRENELSAGLSKRKHRNDHLTSTTSSPGVIVPESSENKNLGGVTQESFDLMIKENPSSQYWKEVAEKRRKALYEALKENEKLHKEIEQKDNEIARLKKENKELAEVAEHVQYMAELIERLNGEPLDNFESLDNQEFDSEEETVEDSLVEDSEIGTCAEGTVSSSTDAKPCI
Turning to B2, the binding result in assay [1] was “binds”.

B3: HsGeminin-BD (protein, UniProt O75496 1-209)
chain: MNPSMKQKQEEIKENIKNSSVPRRTLKMIQPSASGSLVGRENELSAGLSKRKHRNDHLTSTTSSPGVIVPESSENKNLGGVTQESFDLMIKENPSSQYWKEVAEKRRKAAYEAAKAAAKLAAEIEQKDNEIARLKKENKELAEVAEHVQYMAELIERLNGEPLDNFESLDNQEFDSEEETVEDSLVEDSEIGTCAEGTVSSSTDAKPCI
For the molecule B3, in the assay with FLAG-HsCdt1 (human), the binding entry is recorded as “no binding”.

B4: FLAG-HsGeminin-His6 (wild type) (protein, UniProt O75496 1-209)
chain: MNPSMKQKQEEIKENIKNSSVPRRTLKMIQPSASGSLVGRENELSAGLSKRKHRNDHLTSTTSSPGVIVPESSENKNLGGVTQESFDLMIKENPSSQYWKEVAEKRRKALYEALKENEKLHKEIEQKDNEIARLKKENKELAEVAEHVQYMAELIERLNGEPLDNFESLDNQEFDSEEETVEDSLVEDSEIGTCAEGTVSSSTDAKPCI
On to B4, for which the binding result with HsMCM467 complex (human) is “no binding (tested: 60 nM HsGeminin)”.

B5: untagged human Mcm6 (protein, UniProt Q14566 1-821)
chain: MDLAAAAEPGAGSQHLEVRDEVAEKCQKLFLDFLEEFQSSDGEIKYLQLAEELIRPERNTLVVSFVDLEQFNQQLSTTIQEEFYRVYPYLCRALKTFVKDRKEIPLAKDFYVAFQDLPTRHKIRELTSSRIGLLTRISGQVVRTHPVHPELVSGTFLCLDCQTVIRDVEQQFKYTQPNICRNPVCANRRRFLLDTNKSRFVDFQKVRIQETQAELPRGSIPRSLEVILRAEAVESAQAGDKCDFTGTLIVVPDVSKLSTPGARAETNSRVSGVDGYETEGIRGLRALGVRDLSYRLVFLACCVAPTNPRFGGKELRDEEQTAESIKNQMTVKEWEKVFEMSQDKNLYHNLCTSLFPTIHGNDEVKRGVLLMLFGGVPKTTGEGTSLRGDINVCIVGDPSTAKSQFLKHVEEFSPRAVYTSGKASSAAGLTAAVVRDEESHEFVIEAGALMLADNGVCCIDEFDKMDVRDQVAIHEAMEQQTISITKAGVKATLNARTSILAAANPISGHYDRSKSLKQNINLSAPIMSRFDLFFILVDECNEVTDYAIARRIVDLHSRIEESIDRVYSLDDIRRYLLFARQFKPKISKESEDFIVEQYKHLRQRDGSGVTKSSWRITVRQLESMIRLSEAMARMHCCDEVQPKHVKEAFRLLNKSIIRVETPDVNLDQEEEIQMEVDEGAGGINGHADSPAPVNGINGYNEDINQESAPKASLRLGFSEYCRISNLIVLHLRKVEEEEDESALKRSELVNWYLKEIESEIDSEEELINKKRIIEKVIHRLTHYDHVLIELTQAGLKGSTEGSESYEEDPYLVVNPNYLLED
In the case of B5, in assay [2], the binding entry is “no binding”.

B6: untagged human Mcm5 (protein, UniProt P33992 1-734)
chain: MSGFDDPGIFYSDSFGGDAQADEGQARKSQLQRRFKEFLRQYRVGTDRTGFTFKYRDELKRHYNLGEYWIEVEMEDLASFDEDLADYLYKQPAEHLQLLEEAAKEVADEVTRPRPSGEEVLQDIQVMLKSDASPSSIRSLKSDMMSHLVKIPGIIIAASAVRAKATRISIQCRSCRNTLTNIAMRPGLEGYALPRKCNTDQAGRPKCPLDPYFIMPDKCKCVDFQTLKLQELPDAVPHGEMPRHMQLYCDRYLCDKVVPGNRVTIMGIYSIKKFGLTTSRGRDRVGVGIRSSYIRVLGIQVDTDGSGRSFAGAVSPQEEEEFRRLAALPNVYEVISKSIAPSIFGGTDMKKAIACLLFGGSRKRLPDGLTRRGDINLLMLGDPGTAKSQLLKFVEKCSPIGVYTSGKGSSAAGLTASVMRDPSSRNFIMEGGAMVLADGGVVCIDEFDKMREDDRVAIHEAMEQQTISIAKAGITTTLNSRCSVLAAANSVFGRWDETKGEDNIDFMPTILSRFDMIFIVKDEHNEERDVMLAKHVITLHVSALTQTQAVEGEIDLAKLKKFIAYCRVKCGPRLSAEAAEKLKNRYIIMRSGARQHERDSDRRSSIPITVRQLEAIVRIAEALSKMKLQPFATEADVEEALRLFQVSTLDAALSGTLSGVEGFTSQEDQEMLSRIEKQLKRRFAIGSQVSEHSIIKDFTKQKYPEHAIHKVLQLMLRRGEIQHRMQRKVLYRLK
For B6, the binding entry in assay [2] was “binds”.
